Experimental data from the supplement of paper PMC10849652.
Some of the results follow. Residues, ends and D or L forms follow the SMILES beside them. *: point of attachment. Cbz = O=C(OCc1ccccc1)*

Amino acid sequences for entries named in this document (tags omitted). A change or cut given only in a name is not applied to a line headed by its entry.
UniProt Q9UNA0: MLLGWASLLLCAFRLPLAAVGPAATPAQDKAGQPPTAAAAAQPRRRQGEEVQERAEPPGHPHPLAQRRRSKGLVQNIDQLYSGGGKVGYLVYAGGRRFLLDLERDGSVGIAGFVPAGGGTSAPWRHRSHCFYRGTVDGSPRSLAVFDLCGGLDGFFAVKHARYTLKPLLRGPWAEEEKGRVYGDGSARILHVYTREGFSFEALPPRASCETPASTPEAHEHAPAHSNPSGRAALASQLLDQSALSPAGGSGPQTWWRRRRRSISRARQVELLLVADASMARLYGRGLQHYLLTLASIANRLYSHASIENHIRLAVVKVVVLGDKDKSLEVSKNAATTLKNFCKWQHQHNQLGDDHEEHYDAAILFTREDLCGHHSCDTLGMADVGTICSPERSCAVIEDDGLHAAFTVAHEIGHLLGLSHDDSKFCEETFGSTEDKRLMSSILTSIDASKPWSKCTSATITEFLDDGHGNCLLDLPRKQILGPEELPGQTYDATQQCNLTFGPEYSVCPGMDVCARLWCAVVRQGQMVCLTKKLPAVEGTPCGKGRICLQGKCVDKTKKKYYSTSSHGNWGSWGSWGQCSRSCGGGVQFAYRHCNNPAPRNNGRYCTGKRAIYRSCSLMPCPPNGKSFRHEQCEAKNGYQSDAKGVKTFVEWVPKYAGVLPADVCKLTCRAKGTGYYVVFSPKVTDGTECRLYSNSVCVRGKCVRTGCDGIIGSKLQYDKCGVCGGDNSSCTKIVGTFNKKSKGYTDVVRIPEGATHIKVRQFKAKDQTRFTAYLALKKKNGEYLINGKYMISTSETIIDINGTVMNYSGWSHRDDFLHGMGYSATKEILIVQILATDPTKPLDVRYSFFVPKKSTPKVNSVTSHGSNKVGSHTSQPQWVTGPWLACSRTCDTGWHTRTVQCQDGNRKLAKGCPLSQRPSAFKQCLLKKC
UniProt P24666: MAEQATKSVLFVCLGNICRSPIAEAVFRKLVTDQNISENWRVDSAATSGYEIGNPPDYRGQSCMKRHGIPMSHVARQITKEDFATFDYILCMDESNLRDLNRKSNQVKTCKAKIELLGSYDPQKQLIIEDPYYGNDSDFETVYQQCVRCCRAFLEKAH
UniProt Q9ULC5: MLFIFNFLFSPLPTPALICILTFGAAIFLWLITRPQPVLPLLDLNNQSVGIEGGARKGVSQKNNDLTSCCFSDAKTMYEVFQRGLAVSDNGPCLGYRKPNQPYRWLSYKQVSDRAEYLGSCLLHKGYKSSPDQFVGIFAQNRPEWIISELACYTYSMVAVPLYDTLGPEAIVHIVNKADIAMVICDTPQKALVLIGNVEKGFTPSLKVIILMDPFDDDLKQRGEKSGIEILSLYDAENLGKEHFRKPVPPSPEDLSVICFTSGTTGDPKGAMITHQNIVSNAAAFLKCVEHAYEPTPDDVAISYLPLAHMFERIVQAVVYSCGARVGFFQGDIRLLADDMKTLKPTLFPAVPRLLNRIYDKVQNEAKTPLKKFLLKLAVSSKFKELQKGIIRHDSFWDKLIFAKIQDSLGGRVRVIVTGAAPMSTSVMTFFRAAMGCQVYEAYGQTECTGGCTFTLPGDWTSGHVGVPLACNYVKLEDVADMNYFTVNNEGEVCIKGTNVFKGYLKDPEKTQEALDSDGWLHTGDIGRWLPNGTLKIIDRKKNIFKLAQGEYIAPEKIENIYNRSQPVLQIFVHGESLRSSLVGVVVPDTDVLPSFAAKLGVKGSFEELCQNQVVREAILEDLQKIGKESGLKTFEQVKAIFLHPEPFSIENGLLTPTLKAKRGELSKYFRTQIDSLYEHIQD
UniProt O15254: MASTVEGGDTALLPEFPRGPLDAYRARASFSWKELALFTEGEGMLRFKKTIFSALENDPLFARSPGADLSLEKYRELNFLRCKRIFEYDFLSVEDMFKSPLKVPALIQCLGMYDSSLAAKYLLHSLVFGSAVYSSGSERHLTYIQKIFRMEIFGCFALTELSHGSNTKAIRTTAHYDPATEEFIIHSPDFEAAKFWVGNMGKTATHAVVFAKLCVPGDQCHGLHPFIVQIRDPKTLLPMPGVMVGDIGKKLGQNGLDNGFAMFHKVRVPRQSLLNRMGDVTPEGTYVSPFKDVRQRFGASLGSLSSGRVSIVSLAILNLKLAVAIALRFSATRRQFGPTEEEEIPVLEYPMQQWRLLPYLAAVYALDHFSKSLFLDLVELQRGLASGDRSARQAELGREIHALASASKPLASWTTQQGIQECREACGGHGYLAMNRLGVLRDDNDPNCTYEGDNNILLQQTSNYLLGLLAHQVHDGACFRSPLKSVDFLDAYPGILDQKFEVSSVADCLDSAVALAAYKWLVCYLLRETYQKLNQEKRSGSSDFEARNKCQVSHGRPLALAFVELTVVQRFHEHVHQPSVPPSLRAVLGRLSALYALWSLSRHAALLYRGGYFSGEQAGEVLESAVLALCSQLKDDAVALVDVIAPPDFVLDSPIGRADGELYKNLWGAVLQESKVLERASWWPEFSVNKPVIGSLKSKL
UniProt Q86TW2: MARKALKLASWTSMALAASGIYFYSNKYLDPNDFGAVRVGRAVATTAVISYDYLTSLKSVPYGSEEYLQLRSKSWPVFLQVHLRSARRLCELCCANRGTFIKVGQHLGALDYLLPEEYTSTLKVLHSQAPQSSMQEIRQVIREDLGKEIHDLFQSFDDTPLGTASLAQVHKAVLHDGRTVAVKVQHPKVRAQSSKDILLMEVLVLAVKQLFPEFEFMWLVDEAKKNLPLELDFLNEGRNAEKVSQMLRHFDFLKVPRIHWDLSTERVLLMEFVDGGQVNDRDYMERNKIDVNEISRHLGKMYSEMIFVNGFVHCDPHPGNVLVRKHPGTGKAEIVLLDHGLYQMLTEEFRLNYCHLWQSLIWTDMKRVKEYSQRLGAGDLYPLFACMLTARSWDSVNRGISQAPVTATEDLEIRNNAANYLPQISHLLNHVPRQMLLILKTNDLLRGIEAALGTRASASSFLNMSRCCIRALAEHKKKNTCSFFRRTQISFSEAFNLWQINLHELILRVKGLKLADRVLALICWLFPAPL
UniProt O00763, whole entry, looked up: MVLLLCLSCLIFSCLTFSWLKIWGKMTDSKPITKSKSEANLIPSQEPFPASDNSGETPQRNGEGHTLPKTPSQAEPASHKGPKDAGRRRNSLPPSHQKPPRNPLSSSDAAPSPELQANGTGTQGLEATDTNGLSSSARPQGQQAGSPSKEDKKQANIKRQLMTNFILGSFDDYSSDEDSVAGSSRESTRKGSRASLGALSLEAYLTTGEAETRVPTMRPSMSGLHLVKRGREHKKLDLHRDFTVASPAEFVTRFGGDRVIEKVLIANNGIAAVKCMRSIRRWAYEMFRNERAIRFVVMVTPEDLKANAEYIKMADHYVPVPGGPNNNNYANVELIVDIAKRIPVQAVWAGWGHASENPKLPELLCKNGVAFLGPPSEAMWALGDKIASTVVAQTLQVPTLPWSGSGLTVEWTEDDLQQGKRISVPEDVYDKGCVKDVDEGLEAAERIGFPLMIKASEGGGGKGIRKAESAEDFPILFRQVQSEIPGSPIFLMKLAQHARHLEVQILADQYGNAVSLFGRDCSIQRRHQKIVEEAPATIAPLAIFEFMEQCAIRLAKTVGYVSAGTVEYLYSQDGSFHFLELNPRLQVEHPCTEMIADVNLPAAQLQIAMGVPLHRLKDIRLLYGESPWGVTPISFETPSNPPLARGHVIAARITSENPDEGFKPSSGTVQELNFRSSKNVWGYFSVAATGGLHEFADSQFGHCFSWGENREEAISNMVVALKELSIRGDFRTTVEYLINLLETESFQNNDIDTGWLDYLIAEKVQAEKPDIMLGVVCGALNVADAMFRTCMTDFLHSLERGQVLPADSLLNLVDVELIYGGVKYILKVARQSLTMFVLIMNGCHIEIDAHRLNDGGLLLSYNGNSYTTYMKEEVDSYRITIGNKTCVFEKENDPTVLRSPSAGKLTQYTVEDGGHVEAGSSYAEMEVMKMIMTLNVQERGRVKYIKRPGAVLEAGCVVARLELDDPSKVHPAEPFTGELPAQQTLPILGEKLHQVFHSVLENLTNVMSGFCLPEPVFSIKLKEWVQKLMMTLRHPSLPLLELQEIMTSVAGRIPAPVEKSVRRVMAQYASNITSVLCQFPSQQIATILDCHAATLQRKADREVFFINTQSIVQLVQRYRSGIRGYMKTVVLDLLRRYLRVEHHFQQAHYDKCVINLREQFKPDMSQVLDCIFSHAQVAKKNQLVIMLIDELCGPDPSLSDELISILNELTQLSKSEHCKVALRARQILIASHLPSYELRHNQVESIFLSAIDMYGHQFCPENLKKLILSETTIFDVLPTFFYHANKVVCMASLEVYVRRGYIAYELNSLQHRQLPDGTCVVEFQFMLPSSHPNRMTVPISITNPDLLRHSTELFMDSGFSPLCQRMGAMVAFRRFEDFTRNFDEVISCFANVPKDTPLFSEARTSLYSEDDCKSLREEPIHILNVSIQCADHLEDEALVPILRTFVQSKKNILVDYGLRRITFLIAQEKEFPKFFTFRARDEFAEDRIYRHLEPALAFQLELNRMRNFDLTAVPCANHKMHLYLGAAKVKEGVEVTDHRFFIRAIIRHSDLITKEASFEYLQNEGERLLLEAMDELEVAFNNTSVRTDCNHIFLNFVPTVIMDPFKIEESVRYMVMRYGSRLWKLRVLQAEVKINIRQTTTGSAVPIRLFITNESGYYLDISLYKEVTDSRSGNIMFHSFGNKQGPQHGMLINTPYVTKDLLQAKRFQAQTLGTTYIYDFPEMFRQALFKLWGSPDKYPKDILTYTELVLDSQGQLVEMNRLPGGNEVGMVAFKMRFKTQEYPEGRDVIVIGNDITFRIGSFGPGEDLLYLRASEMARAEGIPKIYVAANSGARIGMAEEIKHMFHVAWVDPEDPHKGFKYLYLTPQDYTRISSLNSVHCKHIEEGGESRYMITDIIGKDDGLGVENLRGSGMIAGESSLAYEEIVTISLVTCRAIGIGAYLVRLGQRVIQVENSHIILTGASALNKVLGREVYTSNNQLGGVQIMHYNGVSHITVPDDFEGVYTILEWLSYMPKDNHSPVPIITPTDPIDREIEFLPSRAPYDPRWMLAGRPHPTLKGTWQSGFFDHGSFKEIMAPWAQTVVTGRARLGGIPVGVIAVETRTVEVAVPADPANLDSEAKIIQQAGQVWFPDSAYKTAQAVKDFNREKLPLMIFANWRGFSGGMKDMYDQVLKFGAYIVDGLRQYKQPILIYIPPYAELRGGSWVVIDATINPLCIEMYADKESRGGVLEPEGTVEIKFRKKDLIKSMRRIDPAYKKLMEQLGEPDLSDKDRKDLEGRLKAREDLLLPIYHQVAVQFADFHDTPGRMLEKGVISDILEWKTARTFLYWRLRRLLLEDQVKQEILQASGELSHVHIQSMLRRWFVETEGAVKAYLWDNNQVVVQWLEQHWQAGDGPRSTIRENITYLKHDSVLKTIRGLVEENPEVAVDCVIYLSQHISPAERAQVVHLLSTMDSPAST
UniProt P11117: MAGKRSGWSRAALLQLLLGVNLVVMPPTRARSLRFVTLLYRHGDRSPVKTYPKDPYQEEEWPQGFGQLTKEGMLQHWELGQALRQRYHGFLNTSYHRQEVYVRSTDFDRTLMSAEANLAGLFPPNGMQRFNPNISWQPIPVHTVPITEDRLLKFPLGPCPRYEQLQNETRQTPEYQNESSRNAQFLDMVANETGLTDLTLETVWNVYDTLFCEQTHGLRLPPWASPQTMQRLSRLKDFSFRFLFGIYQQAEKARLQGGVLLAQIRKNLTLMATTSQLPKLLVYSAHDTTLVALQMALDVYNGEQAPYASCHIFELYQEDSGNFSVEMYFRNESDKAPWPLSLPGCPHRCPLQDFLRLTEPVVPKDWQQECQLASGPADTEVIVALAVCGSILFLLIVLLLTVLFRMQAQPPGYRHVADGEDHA
UniProt Q8WTS1: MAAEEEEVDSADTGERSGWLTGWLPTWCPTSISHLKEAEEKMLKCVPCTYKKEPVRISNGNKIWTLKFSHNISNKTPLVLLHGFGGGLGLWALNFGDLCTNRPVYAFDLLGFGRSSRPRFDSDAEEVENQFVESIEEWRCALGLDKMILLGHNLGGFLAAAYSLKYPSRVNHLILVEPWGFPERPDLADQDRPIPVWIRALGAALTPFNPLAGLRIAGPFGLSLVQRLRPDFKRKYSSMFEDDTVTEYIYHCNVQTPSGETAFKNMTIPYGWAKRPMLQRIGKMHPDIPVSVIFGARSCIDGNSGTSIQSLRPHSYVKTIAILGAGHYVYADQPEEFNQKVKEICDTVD

Columns and labels:
Assay in all cases: log2 fold change, soluble protein after heating vs DMSO (PISA); higher = thermal stabilisation; K562 cells, 10 uM, 30 min; active = over 0.2 and 3.5 SD of the protein, either way, in both replicates (recomputed)
IRAK-1-4 Inhibitor I = compound: C1COCCN1CCN2C3=CC=CC=C3N=C2NC(=O)C4=CC(=CC=C4)[N+](=O)[O-] [IRAK-1-4 Inhibitor I]
In short: (§1)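 Quantification of soluble protein used TMTpro 16plex LC-MS/MS, with channel sums equalised. Samples were the supernatant after 21,000xg for 90 min of pooled aliquots from K562 cells (2×10^6 cells/mL) treated with 10 μM compound for 30 min, heated for 3 min over 48°C-58°C, and extracted in PBS with 0.5% NP-40 at 4°C. Values, from duplicates, describe thermal stability against control samples on a log2 fold-change scale.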

ibrutinib = compound: C=CC(=O)N1CCC[C@@H](n2nc(-c3ccc(Oc4ccccc4)cc3)c3c(N)ncnc32)C1 [ibrutinib]
In short: as §1

[1] = compound: CC(=O)c1cnc2ccc(-c3cc(Cl)c(O)c(Cl)c3)nc2c1N[C@H]1CC[C@H](CN(C)C)CC1
In short: as §1

ralimetinib = compound: CC(C)(C)Cn1c(N)nc2ccc(-c3[nH]c(C(C)(C)C)nc3-c3ccc(F)cc3)nc21 [ralimetinib]
In short: as §1

[2] = compound: CC(C)C1=C2N=C(C=C(N2N=C1)NCC3=CC=CC=C3)NCCCCCCN
In short: as §1

[3] = compound: CC(C)C[C@@H](C=O)NC(=O)[C@H](CC(C)C)NC(=O)[C@H](CC(C)C)NC(=O)OCc1ccccc1
In short: as §1

pinometostat = compound: CC(C)N(C[C@H]1O[C@@H](n2cnc3c(N)ncnc32)[C@H](O)[C@@H]1O)[C@H]1C[C@@H](CCc2nc3cc(C(C)(C)C)ccc3[nH]2)C1 [pinometostat]
In short: as §1

[4] = compound: CC1=C(C2=C(C=C1)C(=O)C3=CC=CC=C3N2CCCN)C
In short: as §1

[5] = compound: CC1=C(C=C(C=C1)NC(=O)C2=CC(=CC=C2)C(C)(C)C#N)NC3=CC4=C(C=C3)N=CN(C4=O)C
In short: as §1

[6] = compound: CC1=C(C=C(C=C1)NC(=O)C2=CC(=CC=C2)N(C)C)NC(=O)C3=CC=C(C=C3)O
In short: as §1

[7] = compound: CC1=NC(=CC=C1)C2=C(N=C(N2)C(C)(C)C)C3=CC4=NC=CN=C4C=C3
In short: as §1

vemurafenib = compound: CCCS(=O)(=O)Nc1ccc(F)c(C(=O)c2c[nH]c3ncc(-c4ccc(Cl)cc4)cc23)c1F [vemurafenib]
In short: as §1

[8] = compound: CCCc1cc(C)[nH]c(=O)c1CNC(=O)c1cc(-c2ccnc(N3CCN(C)CC3)c2)cc2c1cnn2C(C)C
In short: as §1

givinostat = compound: CCN(CC)Cc1ccc2cc(COC(=O)Nc3ccc(C(=O)NO)cc3)ccc2c1 [givinostat]
In short: as §1

barasertib = compound: CCN(CCCOc1ccc2c(Nc3cc(CC(=O)Nc4cccc(F)c4)[nH]n3)ncnc2c1)CCOP(=O)(O)O [barasertib]
In short: as §1

[9] = compound: CC(C)(O)CC(=O)NCCn1ccc2ncnc(Nc3ccc(Oc4cccc(C(F)(F)F)c4)c(Cl)c3)c21
In short: as §1

[10] = compound: CC1=CC=C(C=C1)SC2=C3C=C(SC3=CN=C2)C(=O)N
In short: as §1

Nexturastat A = compound: CCCCN(Cc1ccc(C(=O)NO)cc1)C(=O)Nc1ccccc1 [Nexturastat A]
In short: as §1

[11] = compound: CCCS(=O)(=O)Nc1ccc(F)c(C(=O)c2c[nH]c3ncc(Cl)cc23)c1F
In short: as §1

[12] = compound: CC1=C(C(CC(=O)N1)C2=CC=C(C=C2)C(F)(F)F)C(=O)NC3=C(C=C4C(=C3)C=NN4)F
In short: as §1

Target | log2 fold change (IRAK-1-4 Inhibitor I) | log2 fold change (ibrutinib) | log2 fold change [1] | log2 fold change (ralimetinib) | log2 fold change [2] | log2 fold change [3] | log2 fold change (pinometostat) | log2 fold change [4] | log2 fold change [5] | log2 fold change [6] | log2 fold change [7] | log2 fold change (vemurafenib) | log2 fold change [8] | log2 fold change (givinostat) | log2 fold change (barasertib) | log2 fold change [9] | log2 fold change [10] | log2 fold change (Nexturastat A) | log2 fold change [11] | log2 fold change [12]
ADAMTS5 (UniProt Q9UNA0) | inactive: 0.064 | inactive: 0.127 | inactive: 0.036 | inactive: 0.141 | inactive: 0.088 | inactive: -0.009 | inactive: -0.03 | inactive: 0.025 | inactive: -0.171 | inactive: -0.022 | inactive: -0.164 | inactive: -0.095 | inactive: -0.572 | inactive: 0.222 | inactive: 0.02 | – | – | – | – | –
ACP1 (UniProt P24666) | inactive: -0.027 | inactive: -0.073 | inactive: -0.083 | – | inactive: -0.071 | – | inactive: 0.107 | inactive: -0.087 | inactive: 0.007 | – | inactive: -0.123 | inactive: 0.071 | inactive: 0.039 | inactive: 0.076 | inactive: 0.12 | inactive: -0.238 | inactive: 0.01 | inactive: 0.001 | inactive: -0.047 | –
ACSL5 isoform 3 (UniProt Q9ULC5) | inactive: 0.02 | inactive: 0.03 | inactive: -0.017 | inactive: -0.03 | active: -0.354 | inactive: -0.001 | inactive: 0.095 | inactive: 0.088 | inactive: 0.106 | inactive: 0.061 | inactive: 0.088 | inactive: 0.001 | inactive: -0.019 | inactive: -0.023 | inactive: 0.013 | inactive: 0.014 | inactive: -0.025 | inactive: -0.009 | inactive: 0.083 | –
ACOX3 (UniProt O15254) | inactive: 0.095 | inactive: 0.035 | inactive: -0.177 | – | inactive: 0.022 | – | inactive: -0.021 | inactive: -0.051 | inactive: 0.111 | – | inactive: -0.011 | inactive: 0.057 | inactive: 0.184 | inactive: -0.01 | inactive: -0.035 | inactive: 0.061 | inactive: -0.192 | inactive: 0.039 | inactive: -0.009 | –
ADCK1 (UniProt Q86TW2) | inactive: 0.102 | – | – | inactive: 0.001 | inactive: 0.043 | inactive: 0.067 | inactive: 0.027 | inactive: -0.047 | inactive: -0.023 | inactive: 0.003 | inactive: -0.034 | inactive: 0.01 | inactive: -0.078 | inactive: -0.024 | – | inactive: -0.097 | inactive: -0.008 | inactive: -0.063 | inactive: -0.05 | inactive: 0.057
ACACB (UniProt O00763) | inactive: -0.23 | inactive: 0.02 | inactive: 0.108 | inactive: 0.216 | active: -0.515 | inactive: 0.066 | inactive: 0.315 | inactive: 0.027 | inactive: -0.037 | inactive: 0.01 | inactive: -0.065 | inactive: 0.108 | inactive: 0.152 | inactive: 0.149 | inactive: 0.06 | inactive: 0 | inactive: 0.006 | inactive: 0.344 | inactive: 0.012 | –
ACP2 (UniProt P11117) | inactive: 0.047 | inactive: 0.033 | inactive: -0.012 | inactive: -0.012 | inactive: -0.205 | inactive: -0.026 | inactive: 0.027 | inactive: -0.006 | inactive: -0.014 | inactive: -0.013 | inactive: -0.027 | inactive: 0.017 | inactive: -0.038 | inactive: 0 | inactive: 0.016 | inactive: -0.03 | inactive: 0.029 | inactive: -0.08 | inactive: -0.023 | –
AARS2 (UniProt Q5JTZ9) | inactive: 0 | inactive: -0.025 | inactive: -0.025 | inactive: -0.011 | inactive: -0.15 | inactive: -0.013 | inactive: 0.006 | inactive: 0.048 | inactive: -0.003 | inactive: -0.047 | inactive: 0.079 | inactive: 0.045 | inactive: 0.049 | inactive: 0.05 | inactive: 0.058 | inactive: -0.099 | inactive: 0.017 | inactive: -0.015 | inactive: 0.04 | –
ABHD5 (UniProt Q8WTS1) | inactive: 0.065 | inactive: 0.098 | inactive: -0.12 | inactive: 0.095 | inactive: -0.084 | inactive: 0.096 | inactive: -0.018 | inactive: -0.335 | inactive: -0.085 | inactive: -0.048 | inactive: -0.001 | – | – | inactive: 0.09 | inactive: 0.041 | – | inactive: 0.006 | – | inactive: 0.158 | –
